Results are given in words; binding and its absence hold for the method and conditions named. Binding seen in cells or lysates may run through a third protein. A result given as binding can be weak or reduced; the word gives no strength. Sequences can lack the tags named with a protein.
Molecular target: T1, Gef2-3GFP (S. pombe) (UniProt Q09733)
T1 sequence: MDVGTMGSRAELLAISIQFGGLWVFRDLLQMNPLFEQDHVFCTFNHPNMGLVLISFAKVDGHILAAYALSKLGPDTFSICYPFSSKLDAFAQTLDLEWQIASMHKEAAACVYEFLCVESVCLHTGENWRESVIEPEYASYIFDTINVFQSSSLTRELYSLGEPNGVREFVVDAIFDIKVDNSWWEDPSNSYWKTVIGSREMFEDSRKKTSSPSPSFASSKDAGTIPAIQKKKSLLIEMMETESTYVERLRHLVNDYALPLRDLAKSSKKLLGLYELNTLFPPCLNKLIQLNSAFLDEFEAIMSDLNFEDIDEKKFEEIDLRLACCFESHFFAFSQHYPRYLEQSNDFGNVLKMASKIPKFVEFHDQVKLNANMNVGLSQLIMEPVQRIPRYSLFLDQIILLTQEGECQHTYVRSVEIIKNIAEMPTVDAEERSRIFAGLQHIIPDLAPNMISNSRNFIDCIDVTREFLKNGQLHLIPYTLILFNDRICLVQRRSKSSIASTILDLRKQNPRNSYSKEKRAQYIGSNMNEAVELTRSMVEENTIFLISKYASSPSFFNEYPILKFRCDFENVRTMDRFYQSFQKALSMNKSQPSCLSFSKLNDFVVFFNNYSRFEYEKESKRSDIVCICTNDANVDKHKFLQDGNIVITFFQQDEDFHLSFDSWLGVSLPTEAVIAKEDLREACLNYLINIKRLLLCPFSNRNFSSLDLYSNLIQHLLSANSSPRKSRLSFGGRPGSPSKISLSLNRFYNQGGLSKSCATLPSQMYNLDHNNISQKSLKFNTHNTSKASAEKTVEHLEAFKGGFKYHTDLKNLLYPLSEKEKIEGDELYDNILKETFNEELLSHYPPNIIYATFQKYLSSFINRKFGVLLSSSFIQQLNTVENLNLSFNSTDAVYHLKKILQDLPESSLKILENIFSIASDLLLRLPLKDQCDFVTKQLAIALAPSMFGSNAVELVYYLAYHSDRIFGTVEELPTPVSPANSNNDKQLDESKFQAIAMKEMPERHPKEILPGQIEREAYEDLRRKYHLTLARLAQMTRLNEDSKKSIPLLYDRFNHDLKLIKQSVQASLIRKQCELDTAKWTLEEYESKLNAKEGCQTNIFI
Assay: co-IP; reciprocal co-IPs from whole cell extracts (0.5-4 mg) of asynchronous S. pombe, protein-A Dynabeads with anti-3PK, anti-Flag or anti-GFP, 2 h at 4°C; wild-type cells (the Nod1-Gef2 pair also in blt1Δ cells)

Protein sequences, listed by entry. Tags and fused reporters are not part of them. Lines headed by an entry give the natural chain unless they say otherwise; changes in a name come on top.
UniProt Q10443: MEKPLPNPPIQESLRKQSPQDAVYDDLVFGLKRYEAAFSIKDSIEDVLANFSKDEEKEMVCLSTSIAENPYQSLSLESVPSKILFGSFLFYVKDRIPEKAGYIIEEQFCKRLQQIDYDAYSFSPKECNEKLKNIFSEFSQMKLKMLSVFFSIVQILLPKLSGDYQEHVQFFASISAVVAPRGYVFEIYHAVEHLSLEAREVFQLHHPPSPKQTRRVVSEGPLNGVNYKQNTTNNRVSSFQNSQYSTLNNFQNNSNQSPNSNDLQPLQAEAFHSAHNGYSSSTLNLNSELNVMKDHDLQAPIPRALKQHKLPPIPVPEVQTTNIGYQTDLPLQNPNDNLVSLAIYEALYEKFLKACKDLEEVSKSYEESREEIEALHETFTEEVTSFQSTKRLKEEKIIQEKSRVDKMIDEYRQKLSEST

- binding: binds
Substance: Nod1-3PK (from UniProt Q10443)

Reference: publication PMC3547912
